Experimental data reported in patent US20200121652A1, “COMPOUNDS HAVING CASPASE INHIBITORY ACTIVITY, PHARMACEUTICAL AGENT CONTAINING SAID COMPOUNDS AND FOR TREATING OR PREVENTING CORNEAL ENDOTHELIAL SYMPTOMS, DISORDERS, OR DISEASES, AND APPLICATION OF SAID PHARMACEUTICAL AGENT” (The Doshisha, priority 2017, published 2020).

System: immortalized Fuchs' endothelial corneal dystrophy cells
Assay: Concentration-dependent caspase 3/7 activity under TGF-β2 stimulation (Example 3)
Type: cell-based
Conditions: Homo sapiens; TGF-β2 10 ng/mL, 28 hours; agent 10 μM
Protocol: 7×10^3 immortalized Fuchs' endothelial corneal dystrophy cells were seeded on a 96-well plate and were cultured for 24 hours under the condition of 5% CO2 at 37° C.
After 28 hours under the condition of 5% CO2 at 37° C., cell morphology was observed using a phase difference microscope. Caspase 3/7 activity was then measured using Caspase-Glo 3/7 Assay (Promega, #G8091). DMEM+2% FBS+1% P/S was used as the medium. Caspase 3/7 activity and cell viability in this example were measured using GloMax-Multi Detection System (Promega, E7051).
Caspase 3/7 activity below 80% was used as a indicator indicating whether an agent can be used for treating or preventing a corneal endothelial condition, disorder, or disease, or whether an agent can be used as a caspase inhibitor (the underlines in FIG. 4A-1, FIG. 4A-2 and FIG. 4A-3, and FIG. 4B-1, FIG. 4B-2 and FIG. 4B-3).

In the case of `Clc1ccc(CO/N=C(\Cn2ccnc2)c2ccc(Cl)cc2Cl)c(Cl)c1` [Oxiconazole Nitrate], the activity at 10 µM was ≤ 80%.
